PubChem BioAssay AID652243 | Drosophila RNAi Screening Center, 2013

Screen: 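Knock-downs that decrease or increase androgen receptor reporter signal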 (primary screen)
System: Drosophila S2R+ cells
Reagents: long dsRNA against Drosophila genes
Timing: 72 h (48 h, then 24 h hormone)
Challenge: synthetic androgen R1881 at 10 nM for 24 h
Measurement: 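Firefly light from an androgen-responsive reporter and Renilla control light per well, raw and unnormalised, for each of two replicates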
Scale: firefly reporter light: higher = more light from androgen-responsive reporter; Renilla control light: higher = more constitutive control signal (cell number, transfection)
Hit rule: 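Hit when the log firefly-to-Renilla ratio dropped or increased by a fixed fold versus the mean of GFP or LacZ controls across duplicate plates; lowering cut given as 1.5 and as 3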
Calls: active = hit: reporter lowered or raised; inactive = no hit
In all, the deposit lists about 24,000 reagents; shown is an unselected part of those that have a named target and a result. Over the whole deposit, 246 (1%) were called active. 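Plates not normalised; calls are printed but the firefly/Renilla ratio behind them is not deposited; fold cut for lowering reported inconsistently.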 The raw values are shown without normalisation. Reagent sequences are not shown. The record does not give: the amount of reagent.

Gene	DRSC id	firefly reporter light, replicate 1	firefly reporter light, replicate 2	Renilla control light, replicate 1	Renilla control light, replicate 2	activity call
CG33309	DRSC01421	2.25e5	2.06e5	7.70e5	7.89e5	inactive
bon	DRSC16914	2.50e5	2.55e5	2.94e6	3.03e6	inactive
Jhbp4	DRSC14222	97690	1.91e5	1.82e6	2.27e6	inactive
Ir60e	DRSC04227	2.01e5	2.08e5	1.39e6	1.02e6	inactive
CG16781	DRSC18117	3.09e5	4.25e5	3.73e6	4.28e6	inactive
CG16781	DRSC28112	4.35e5	4.47e5	1.73e6	1.78e6	inactive
Ir56d	DRSC06590	1.21e5	1.62e5	1.53e6	1.55e6	inactive
Ir56d	DRSC28383	5.08e5	4.99e5	1.08e6	1.34e6	inactive
QC	DRSC09736	9.26e5	8.61e5	2.17e6	2.03e6	inactive
NT5E-2	DRSC06893	1.08e6	7.75e5	1.33e6	1.35e6	inactive
Ref2	DRSC02563	1.24e5	1.74e5	1.20e6	1.62e6	inactive
aus	DRSC13471	1.78e5	95552	63652	3.96e5	inactive
aus	DRSC13473	3.39e5	2.40e5	15253	2.19e5	inactive
aus	DRSC15157	16815	24515	4.44e5	4.09e5	inactive
aus	DRSC26783	2.05e5	1.89e5	8.14e5	7.23e5	inactive
ND-B14	DRSC07029	2.25e5	1.59e5	1.56e6	1.16e6	inactive
ND-B14	DRSC28660	3.73e5	3.54e5	1.29e6	1.39e6	inactive
Erasp	DRSC07111	1.01e6	1.25e6	1.45e6	2.08e6	inactive
CG34290	DRSC38813	1.01e6	6.68e5	2.19e6	1.20e6	inactive
CG31806	DRSC02787	1.07e5	91872	1.76e6	1.61e6	inactive
CG31806	DRSC29784	2.50e5	2.81e5	1.01e6	1.14e6	inactive
dap	DRSC07601	1.22e6	6.49e5	2.11e6	1.91e6	inactive
dap	DRSC36662					inactive
dap	DRSC36663					inactive
Asx	DRSC23408	7.01e5	6.74e5	9.54e5	1.00e6	inactive
Ih	DRSC05477	2.25e5	2.27e5	7.08e5	6.47e5	inactive
Ih	DRSC07445	8.58e5	9.65e5	2.86e6	2.31e6	inactive
Ih	DRSC22956	7.26e5	8.13e5	8.58e5	9.89e5	inactive
Ih	DRSC24809	5.14e5	4.76e5	4.68e5	4.79e5	inactive
Ih	DRSC27393	1.95e5	3.36e5	7.44e5	5.89e5	inactive
Ih	DRSC28372	2.82e5	4.92e5	8.24e5	1.35e6	inactive
Ih	DRSC39084	5.31e5	4.33e5	1.34e6	1.16e6	inactive
CG3251	DRSC00586	64801	1.08e5	4.07e5	9.60e5	inactive
Nbr	DRSC03166	6.85e5	5.18e5	2.43e6	1.60e6	inactive
CG14721	DRSC29246	1.17e6	1.08e6	1.53e6	1.42e6	inactive
CG34050 (retired record)	DRSC09067	2.14e5	1.32e5	4.15e5	2.11e5	inactive
CG34050 (retired record)	DRSC26231	3.53e5	3.02e5	7.56e5	6.06e5	inactive
GCS2beta	DRSC02960	3.65e5	3.35e5	1.87e6	2.97e6	inactive
GCS2beta	DRSC30037	3.65e5	2.36e5	9.31e5	9.27e5	inactive
CG1631	DRSC20535	1.54e5	90485	8.12e5	4.10e5	inactive
CG34384	DRSC12642	3.98e5	5.92e5	2.91e6	3.12e6	inactive
CG34384	DRSC14855	90555	74273	2.13e6	1.75e6	inactive
CG34384	DRSC15444	1.39e5	92487	2.94e6	1.68e6	inactive
CG34384	DRSC16575	82399	98913	1.79e6	1.98e6	inactive
CG34384	DRSC37078					inactive
tre-1 (retired record)	DRSC38645	1.10e6	6.84e5	2.31e6	2.06e6	inactive
Ser	DRSC16856	2.70e5	3.02e5	2.10e6	3.27e6	inactive
Ser	DRSC25494	1.94e5	1.20e5	5.85e5	3.84e5	inactive
wge	DRSC15246	84388	99281	9.69e5	1.10e6	inactive
wge	DRSC15672	2.04e5	2.91e5	2.71e6	2.74e6	inactive
CG8541	DRSC10989	1.25e5	1.58e5	1.79e6	1.68e6	inactive
CG8541	DRSC25235	6.63e5	8.15e5	1.48e6	1.36e6	inactive
CG13408	DRSC13534	93496	55483	1.80e5	1.33e5	inactive
CG13408	DRSC14584	3.38e5	4.22e5	3.52e6	2.97e6	inactive
CG31955	DRSC00285	91377	1.01e5	9.49e5	7.61e5	inactive
gdrd	DRSC10020	1.20e5	1.49e5	9.85e5	1.50e6	inactive
CG42819	DRSC02264	1.32e5	1.43e5	1.21e6	1.09e6	inactive
betaCOP	DRSC20312	77323	75358	5.09e5	5.59e5	inactive
betaCOP	DRSC27169	2.22e5	3.08e5	4.82e5	4.54e5	inactive
